PubChem BioAssay AID328 (DTP/NCI, 2004)
The list does not hold the whole screen: it gathers some chemical classes. Not every dose and run of a compound is shown. T/C is the treated group as % of the vehicle group. Some doses have a count of surviving animals in place of a T/C: the source holds a T/C of zero for them, seemingly a mark for toxic or unscored doses. Some doses without a T/C left all or most animals alive at the check, yet need not have been tolerated: the source hardly ever lists a survival T/C far under the control, and the zero likely stands for such cases as well. Survivors were counted at the toxicity check, usually on the fifth day, unless a day is given; later deaths do not show. Schedule codes are those of the source, taken here to give the interval after Q, in days (D) or hours (H), and the number of doses after X. Some doses were run more than once; their values stand side by side, smallest first. For survival time, the PubChem record calls one and a half times the control and up active, and a quarter to a half above the control has no call in these data; cut-offs in other NCI protocols can differ. Some T/C values are followed by the survivors on the day toxicity was checked, most often the fifth; without a count or a note in brackets, all were alive then.

Test system: BDF1 mice, P388 leukemia ip, median survival T/C
Test: NCI In Vivo Anticancer Drug Screen. Data for tumor model P388 Leukemia (intraperitoneal) in B6D2F1 (BDF1) mice
Settings: T/C endpoint: median survival time, higher T/C = longer survival
Method in brief: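 Survival ratio, drug arm over vehicle arm, in mice with a transplanted tumour.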

Q: How did the T/C (dose: 0.01 mg/kg/injection, schedule: Q01DX009 (ip), vehicle: Klucel (hydroxypropylcellulose) (HPC)) turn out when N#C/C(=C\c1ccc(N(CCBr)CCBr)cc1)C(N)=O was run?
A: Its T/C is 115 % of control.

Q: And the T/C (dose: 0.03 mg/kg/injection, schedule: Q01DX009 (ip), vehicle: Klucel (hydroxypropylcellulose) (HPC))?
A: Its T/C is 140 % of control.

Q: What about the T/C (dose: 0.06 mg/kg/injection, schedule: Q01DX009 (ip), vehicle: Klucel (hydroxypropylcellulose) (HPC)) of the same compound?
A: The T/C was 140 % of control.

Q: What about the T/C (dose: 0.12 mg/kg/injection, schedule: Q01DX009 (ip), vehicle: Klucel (hydroxypropylcellulose) (HPC)) of the same compound?
A: The T/C was 130 % of control.

Q: And the T/C (dose: 0.12 mg/kg/injection, schedule: Q01DX009 (ip), vehicle: saline with Tween-80)?
A: Its T/C is 95 % of control.

Q: What about the T/C (dose: 0.25 mg/kg/injection, schedule: Q01DX009 (ip), vehicle: saline with Tween-80) of the same compound?
A: The T/C was 159 % of control.

Q: What about the T/C (dose: 0.5 mg/kg/injection, schedule: Q01DX009 (ip), vehicle: saline with Tween-80) of the same compound?
A: Its T/C is 168 % of control.

Q: What about the T/C (dose: 0.75 mg/kg/injection, schedule: Q01DX009 (ip), vehicle: Klucel (hydroxypropylcellulose) (HPC)) of the same compound?
A: The T/C was 153 % of control.

Q: What about the T/C (dose: 0.9 mg/kg/injection, schedule: Q04DX003 (ip), vehicle: Klucel (hydroxypropylcellulose) (HPC)) of the same compound?
A: The T/C was 120 % of control.

Q: What about the T/C (dose: 1.0 mg/kg/injection, schedule: Q01DX009 (ip), vehicle: Klucel (hydroxypropylcellulose) (HPC)) of the same compound?
A: The T/C was 150 % of control.

Q: What about the T/C (dose: 1.0 mg/kg/injection, schedule: Q01DX009 (ip), vehicle: saline with Tween-80) of the same compound?
A: The T/C was 168 % of control.

Q: And the T/C (dose: 1.3 mg/kg/injection, schedule: Q04DX003 (ip), vehicle: Klucel (hydroxypropylcellulose) (HPC))?
A: Its T/C is 137 % of control.

Q: And the T/C (dose: 1.5 mg/kg/injection, schedule: Q01DX009 (ip), vehicle: Klucel (hydroxypropylcellulose) (HPC))?
A: Its T/C is 173 % of control.

Q: And the T/C (dose: 2.0 mg/kg/injection, schedule: Q01DX009 (ip), vehicle: Klucel (hydroxypropylcellulose) (HPC))?
A: Its T/C is 110 % of control.

Q: What about the T/C (dose: 2.0 mg/kg/injection, schedule: Q01DX009 (ip), vehicle: saline with Tween-80) of the same compound?
A: The T/C was 231 % of control.

Q: And the T/C (dose: 2.0 mg/kg/injection, schedule: Q04DX003 (ip), vehicle: Klucel (hydroxypropylcellulose) (HPC))?
A: The T/C was 150 and 172 % of control.

Q: What about the T/C (dose: 3.0 mg/kg/injection, schedule: Q01DX009 (ip), vehicle: Klucel (hydroxypropylcellulose) (HPC)) of the same compound?
A: The T/C was 230 % of control.

Q: What about the T/C (dose: 3.0 mg/kg/injection, schedule: Q04DX003 (ip), vehicle: Klucel (hydroxypropylcellulose) (HPC)) of the same compound?
A: The T/C was 177 % of control.

Q: What about the T/C (dose: 3.12 mg/kg/injection, schedule: Q01DX009 (ip), vehicle: Klucel (hydroxypropylcellulose) (HPC)) of the same compound?
A: Its T/C is 210 % of control.

Q: What about the T/C (dose: 4.0 mg/kg/injection, schedule: Q01DX009 (ip), vehicle: Klucel (hydroxypropylcellulose) (HPC)) of the same compound?
A: The T/C was 190 % of control [5 of 6 alive].

Q: What about the survivor count (dose: 4.0 mg/kg/injection, schedule: Q01DX009 (ip), vehicle: saline with Tween-80) of the same compound?
A: The survivor count was 6 of 6.

Q: And the T/C (dose: 4.5 mg/kg/injection, schedule: Q01DX009 (ip), vehicle: Klucel (hydroxypropylcellulose) (HPC))?
A: Its T/C is 165 % of control.

Q: What about the T/C (dose: 5.0 mg/kg/injection, schedule: Q04DX003 (ip), vehicle: Klucel (hydroxypropylcellulose) (HPC)) of the same compound?
A: Its T/C is 172 % of control.

Q: What about the T/C (dose: 6.25 mg/kg/injection, schedule: Q01DX009 (ip), vehicle: Klucel (hydroxypropylcellulose) (HPC)) of the same compound?
A: Its T/C is 115 % of control.

Q: What about the survivor count (dose: 8.0 mg/kg/injection, schedule: Q01DX009 (ip), vehicle: Klucel (hydroxypropylcellulose) (HPC)) of the same compound?
A: The survivor count was 2 of 6.

Q: What about the T/C (dose: 8.0 mg/kg/injection, schedule: Q04DX003 (ip), vehicle: Klucel (hydroxypropylcellulose) (HPC)) of the same compound?
A: Its T/C is 196 % of control.

Q: And the T/C (dose: 12.0 mg/kg/injection, schedule: Q04DX003 (ip), vehicle: Klucel (hydroxypropylcellulose) (HPC))?
A: The T/C was 230 % of control.

Q: And the survivor count (dose: 12.5 mg/kg/injection, schedule: Q01DX009 (ip), vehicle: Klucel (hydroxypropylcellulose) (HPC))?
A: The survivor count was 2 of 6 and 6 of 6.

Q: And the T/C (dose: 12.5 mg/kg/injection, schedule: Q04DX003 (ip), vehicle: Klucel (hydroxypropylcellulose) (HPC))?
A: Its T/C is 154 % of control.

Q: What about the T/C (dose: 18.0 mg/kg/injection, schedule: Q04DX003 (ip), vehicle: Klucel (hydroxypropylcellulose) (HPC)) of the same compound?
A: The T/C was 161 % of control.

Q: What about the survivor count (dose: 25.0 mg/kg/injection, schedule: Q01DX009 (ip), vehicle: Klucel (hydroxypropylcellulose) (HPC)) of the same compound?
A: The survivor count was 0 of 6.

Q: What about the T/C (dose: 25.0 mg/kg/injection, schedule: Q04DX003 (ip), vehicle: Klucel (hydroxypropylcellulose) (HPC)) of the same compound?
A: The T/C was 87 % of control.

Q: What about the survivor count (dose: 50.0 mg/kg/injection, schedule: Q01DX009 (ip), vehicle: Klucel (hydroxypropylcellulose) (HPC)) of the same compound?
A: Its survivor count is 0 of 6.

Q: And the survivor count (dose: 50.0 mg/kg/injection, schedule: Q04DX003 (ip), vehicle: Klucel (hydroxypropylcellulose) (HPC))?
A: The survivor count was 1 of 6.

Q: What about the survivor count (dose: 100.0 mg/kg/injection, schedule: Q04DX003 (ip), vehicle: Klucel (hydroxypropylcellulose) (HPC)) of the same compound?
A: The survivor count was 0 of 6.

Q: And the survivor count (dose: 200.0 mg/kg/injection, schedule: Q04DX003 (ip), vehicle: Klucel (hydroxypropylcellulose) (HPC))?
A: The survivor count was 0 of 6.

Q: And the survivor count (dose: 400.0 mg/kg/injection, schedule: Q04DX003 (ip), vehicle: Klucel (hydroxypropylcellulose) (HPC))?
A: The survivor count was 0 of 6.

Q: With CC(C)SC(OC(=O)COc1ccc(Cl)cc1Cl)C(Cl)(Cl)Cl (stereo not given) as the compound, how does the T/C (dose: 100.0 mg/kg/injection, schedule: Q04DX003 (ip), vehicle: other) read?
A: Its T/C is 109 % of control.

Q: What about the T/C (dose: 200.0 mg/kg/injection, schedule: Q04DX003 (ip), vehicle: other) of the same compound?
A: Its T/C is 109 % of control.

Q: And the T/C (dose: 400.0 mg/kg/injection, schedule: Q04DX003 (ip), vehicle: other)?
A: Its T/C is 109 % of control [5 of 6 alive].
